{"source": "patent US20030036514A1", "about": "(priority 2001, published 2003)", "test": "general procedure: Boc solid-phase peptide synthesis; p-MBHA resin; dicyclohexylcarbodiimide", "conditions": "whole synthesis, scale 0.5 mmol"}
{"substance": "Ac-Nle-Asp-His-D-Phe-Cl-Arg-Trp-Lys-NH2", "values": [{"measurement": "crude mass", "result": 370, "unit": "mg"}]}
